# The list shows a part of the results. Only hits are listed; about a third recur on repeated control peptides.
# Chains of the proteins cited; added tags and fusions are not shown.
# COX6B1, P14854, UniProt P14854, whole entry: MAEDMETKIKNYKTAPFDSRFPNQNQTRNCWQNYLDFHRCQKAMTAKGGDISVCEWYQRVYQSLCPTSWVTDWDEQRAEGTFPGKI
# NDUFS8, O00217, UniProt O00217, whole entry: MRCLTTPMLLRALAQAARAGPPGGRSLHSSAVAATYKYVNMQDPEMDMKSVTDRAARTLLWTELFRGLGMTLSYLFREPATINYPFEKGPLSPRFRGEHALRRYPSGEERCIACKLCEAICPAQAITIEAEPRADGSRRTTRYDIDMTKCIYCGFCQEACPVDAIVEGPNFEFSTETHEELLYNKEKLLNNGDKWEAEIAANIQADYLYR
# IGF2BP3, O00425, UniProt O00425, whole entry: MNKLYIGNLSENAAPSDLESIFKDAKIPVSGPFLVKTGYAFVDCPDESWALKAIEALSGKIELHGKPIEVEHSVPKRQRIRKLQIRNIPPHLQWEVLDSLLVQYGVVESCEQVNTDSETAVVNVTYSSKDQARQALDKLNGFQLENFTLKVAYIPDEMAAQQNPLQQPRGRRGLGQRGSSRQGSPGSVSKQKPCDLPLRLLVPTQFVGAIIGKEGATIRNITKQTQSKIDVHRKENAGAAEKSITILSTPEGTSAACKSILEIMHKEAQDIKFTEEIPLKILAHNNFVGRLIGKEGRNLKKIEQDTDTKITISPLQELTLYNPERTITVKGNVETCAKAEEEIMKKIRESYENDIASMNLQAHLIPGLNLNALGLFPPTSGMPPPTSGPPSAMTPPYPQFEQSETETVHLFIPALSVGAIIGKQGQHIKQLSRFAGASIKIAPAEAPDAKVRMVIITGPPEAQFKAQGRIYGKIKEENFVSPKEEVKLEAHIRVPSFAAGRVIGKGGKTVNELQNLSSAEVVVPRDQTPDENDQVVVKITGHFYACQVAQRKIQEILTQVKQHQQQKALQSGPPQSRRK
# GBF1, Q92538, UniProt Q92538, whole entry: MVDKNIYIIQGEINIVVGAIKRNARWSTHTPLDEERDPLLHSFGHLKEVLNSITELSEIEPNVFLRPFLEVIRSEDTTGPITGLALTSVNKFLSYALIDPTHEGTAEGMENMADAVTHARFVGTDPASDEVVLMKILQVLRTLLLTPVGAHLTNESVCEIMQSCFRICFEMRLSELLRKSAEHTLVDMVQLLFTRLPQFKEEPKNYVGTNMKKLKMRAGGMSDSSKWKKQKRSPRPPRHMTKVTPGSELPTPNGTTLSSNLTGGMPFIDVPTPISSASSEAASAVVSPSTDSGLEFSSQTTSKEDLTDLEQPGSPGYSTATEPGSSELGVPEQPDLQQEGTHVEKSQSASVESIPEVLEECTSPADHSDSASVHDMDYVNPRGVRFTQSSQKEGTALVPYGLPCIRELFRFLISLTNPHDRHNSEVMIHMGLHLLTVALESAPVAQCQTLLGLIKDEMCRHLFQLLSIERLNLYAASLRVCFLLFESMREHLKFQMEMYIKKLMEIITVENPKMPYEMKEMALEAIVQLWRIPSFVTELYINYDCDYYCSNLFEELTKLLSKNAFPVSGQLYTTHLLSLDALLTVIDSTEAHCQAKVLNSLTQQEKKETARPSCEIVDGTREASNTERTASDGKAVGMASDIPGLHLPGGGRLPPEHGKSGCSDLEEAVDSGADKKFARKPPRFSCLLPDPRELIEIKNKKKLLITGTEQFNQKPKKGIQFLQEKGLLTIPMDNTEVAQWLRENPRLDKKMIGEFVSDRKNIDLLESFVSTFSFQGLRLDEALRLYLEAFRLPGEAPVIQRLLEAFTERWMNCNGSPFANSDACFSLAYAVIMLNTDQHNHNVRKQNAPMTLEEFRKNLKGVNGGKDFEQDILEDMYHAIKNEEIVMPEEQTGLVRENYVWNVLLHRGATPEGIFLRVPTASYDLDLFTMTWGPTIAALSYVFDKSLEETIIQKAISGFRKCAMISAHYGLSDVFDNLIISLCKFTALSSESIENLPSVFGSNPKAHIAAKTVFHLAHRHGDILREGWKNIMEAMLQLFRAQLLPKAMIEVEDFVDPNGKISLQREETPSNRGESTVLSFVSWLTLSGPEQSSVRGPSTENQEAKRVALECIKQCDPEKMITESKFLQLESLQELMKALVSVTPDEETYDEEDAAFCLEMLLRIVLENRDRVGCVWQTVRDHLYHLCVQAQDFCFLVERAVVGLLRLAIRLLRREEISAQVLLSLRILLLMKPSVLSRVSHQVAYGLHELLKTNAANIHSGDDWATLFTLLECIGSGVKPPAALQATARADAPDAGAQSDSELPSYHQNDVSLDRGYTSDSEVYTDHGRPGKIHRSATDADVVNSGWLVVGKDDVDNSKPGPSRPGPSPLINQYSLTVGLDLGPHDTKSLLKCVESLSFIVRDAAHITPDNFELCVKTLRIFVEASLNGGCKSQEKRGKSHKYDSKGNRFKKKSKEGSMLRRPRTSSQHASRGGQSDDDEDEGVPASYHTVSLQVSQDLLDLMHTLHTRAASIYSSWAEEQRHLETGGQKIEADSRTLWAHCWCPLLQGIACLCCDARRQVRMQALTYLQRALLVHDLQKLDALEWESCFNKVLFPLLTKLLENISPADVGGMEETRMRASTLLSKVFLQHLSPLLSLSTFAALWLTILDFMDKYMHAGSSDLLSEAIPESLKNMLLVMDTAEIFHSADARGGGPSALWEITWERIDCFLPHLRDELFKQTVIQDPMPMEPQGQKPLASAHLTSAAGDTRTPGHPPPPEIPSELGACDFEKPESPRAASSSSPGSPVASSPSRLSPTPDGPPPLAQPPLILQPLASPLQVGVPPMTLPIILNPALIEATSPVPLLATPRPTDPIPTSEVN
# PSMC3, P17980, UniProt P17980, whole entry: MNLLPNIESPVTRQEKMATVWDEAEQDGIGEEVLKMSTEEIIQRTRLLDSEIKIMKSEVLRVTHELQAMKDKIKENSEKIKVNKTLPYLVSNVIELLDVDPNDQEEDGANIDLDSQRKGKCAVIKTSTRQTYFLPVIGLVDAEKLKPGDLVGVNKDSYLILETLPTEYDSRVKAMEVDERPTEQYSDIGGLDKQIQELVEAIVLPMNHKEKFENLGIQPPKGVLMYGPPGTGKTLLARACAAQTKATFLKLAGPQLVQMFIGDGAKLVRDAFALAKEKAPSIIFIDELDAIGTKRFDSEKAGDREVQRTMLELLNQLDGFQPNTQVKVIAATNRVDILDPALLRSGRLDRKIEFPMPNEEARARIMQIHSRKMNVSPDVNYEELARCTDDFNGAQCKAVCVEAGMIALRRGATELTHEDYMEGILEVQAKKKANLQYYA
# PDIA3, P30101, UniProt P30101, whole entry: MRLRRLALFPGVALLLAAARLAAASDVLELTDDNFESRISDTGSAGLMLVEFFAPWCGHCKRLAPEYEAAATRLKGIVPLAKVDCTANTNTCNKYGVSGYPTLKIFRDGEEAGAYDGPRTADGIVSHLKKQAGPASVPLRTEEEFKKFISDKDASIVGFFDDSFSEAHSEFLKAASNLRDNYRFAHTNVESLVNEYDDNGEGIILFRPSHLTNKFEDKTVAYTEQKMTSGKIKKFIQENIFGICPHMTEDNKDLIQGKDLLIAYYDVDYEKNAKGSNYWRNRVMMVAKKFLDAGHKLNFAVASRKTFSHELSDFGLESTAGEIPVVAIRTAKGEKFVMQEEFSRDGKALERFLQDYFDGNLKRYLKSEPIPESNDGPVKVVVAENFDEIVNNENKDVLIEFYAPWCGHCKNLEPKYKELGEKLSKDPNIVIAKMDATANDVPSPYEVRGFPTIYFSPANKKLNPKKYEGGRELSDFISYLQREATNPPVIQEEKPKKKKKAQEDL
# CTNNB1, P35222, UniProt P35222, whole entry: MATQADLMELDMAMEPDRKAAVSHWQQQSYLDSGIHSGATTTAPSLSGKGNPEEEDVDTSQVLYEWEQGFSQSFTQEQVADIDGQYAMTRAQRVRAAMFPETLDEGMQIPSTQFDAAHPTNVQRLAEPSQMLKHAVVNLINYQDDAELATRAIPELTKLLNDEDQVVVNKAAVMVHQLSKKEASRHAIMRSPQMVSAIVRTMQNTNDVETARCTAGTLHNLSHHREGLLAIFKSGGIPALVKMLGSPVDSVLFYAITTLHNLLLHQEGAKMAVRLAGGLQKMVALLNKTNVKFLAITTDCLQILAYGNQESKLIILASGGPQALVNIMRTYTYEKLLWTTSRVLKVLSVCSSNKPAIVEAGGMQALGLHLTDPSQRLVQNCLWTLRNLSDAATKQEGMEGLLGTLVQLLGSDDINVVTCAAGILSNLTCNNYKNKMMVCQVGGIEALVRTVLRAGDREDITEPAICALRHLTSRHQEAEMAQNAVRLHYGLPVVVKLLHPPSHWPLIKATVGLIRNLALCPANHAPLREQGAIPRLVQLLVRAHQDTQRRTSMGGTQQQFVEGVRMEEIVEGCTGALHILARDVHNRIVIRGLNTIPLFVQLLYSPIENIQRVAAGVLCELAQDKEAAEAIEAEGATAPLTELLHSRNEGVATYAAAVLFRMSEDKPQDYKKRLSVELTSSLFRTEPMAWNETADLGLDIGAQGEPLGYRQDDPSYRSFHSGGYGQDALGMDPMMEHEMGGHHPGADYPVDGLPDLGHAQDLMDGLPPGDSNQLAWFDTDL
# EIF3B, P55884, UniProt P55884, whole entry: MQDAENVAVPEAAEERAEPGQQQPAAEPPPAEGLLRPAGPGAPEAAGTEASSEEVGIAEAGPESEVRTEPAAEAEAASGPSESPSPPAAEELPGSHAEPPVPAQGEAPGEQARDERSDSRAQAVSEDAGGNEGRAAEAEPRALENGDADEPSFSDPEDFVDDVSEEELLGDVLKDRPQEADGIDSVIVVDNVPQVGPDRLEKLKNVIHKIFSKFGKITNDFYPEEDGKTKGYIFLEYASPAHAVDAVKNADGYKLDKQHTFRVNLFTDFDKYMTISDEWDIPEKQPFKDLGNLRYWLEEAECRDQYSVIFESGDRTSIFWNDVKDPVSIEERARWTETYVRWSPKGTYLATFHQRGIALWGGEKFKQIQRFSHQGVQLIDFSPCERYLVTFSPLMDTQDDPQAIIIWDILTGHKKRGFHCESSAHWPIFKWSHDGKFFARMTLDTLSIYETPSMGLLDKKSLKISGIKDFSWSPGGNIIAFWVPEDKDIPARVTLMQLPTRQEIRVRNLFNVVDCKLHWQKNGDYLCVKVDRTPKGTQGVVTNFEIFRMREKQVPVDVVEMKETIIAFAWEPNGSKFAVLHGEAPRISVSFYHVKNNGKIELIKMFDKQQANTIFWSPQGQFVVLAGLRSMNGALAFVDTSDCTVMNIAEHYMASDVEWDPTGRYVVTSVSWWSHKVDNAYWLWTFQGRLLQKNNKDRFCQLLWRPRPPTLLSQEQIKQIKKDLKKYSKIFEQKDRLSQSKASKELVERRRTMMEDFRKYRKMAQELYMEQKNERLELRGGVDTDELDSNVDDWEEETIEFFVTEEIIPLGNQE
# NDUFA10, O95299, UniProt O95299, whole entry: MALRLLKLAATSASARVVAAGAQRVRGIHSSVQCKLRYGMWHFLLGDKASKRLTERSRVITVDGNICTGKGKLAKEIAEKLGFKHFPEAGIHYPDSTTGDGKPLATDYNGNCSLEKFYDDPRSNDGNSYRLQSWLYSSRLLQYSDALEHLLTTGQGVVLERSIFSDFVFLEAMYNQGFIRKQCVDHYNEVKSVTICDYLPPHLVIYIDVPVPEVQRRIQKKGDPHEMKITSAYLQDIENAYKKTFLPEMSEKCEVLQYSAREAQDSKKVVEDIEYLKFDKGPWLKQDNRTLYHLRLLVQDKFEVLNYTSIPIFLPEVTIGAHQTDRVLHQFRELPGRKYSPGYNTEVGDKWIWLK
# SRSF1, Q07955, UniProt Q07955, whole entry: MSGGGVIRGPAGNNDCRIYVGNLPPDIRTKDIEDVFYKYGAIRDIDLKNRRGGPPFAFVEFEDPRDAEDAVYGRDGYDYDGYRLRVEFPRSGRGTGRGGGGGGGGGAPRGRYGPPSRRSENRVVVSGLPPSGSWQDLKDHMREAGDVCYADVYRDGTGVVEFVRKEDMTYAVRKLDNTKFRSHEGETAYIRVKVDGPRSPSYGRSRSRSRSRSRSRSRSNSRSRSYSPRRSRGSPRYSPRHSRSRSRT
# TUBB8, Q3ZCM7, UniProt Q3ZCM7, whole entry: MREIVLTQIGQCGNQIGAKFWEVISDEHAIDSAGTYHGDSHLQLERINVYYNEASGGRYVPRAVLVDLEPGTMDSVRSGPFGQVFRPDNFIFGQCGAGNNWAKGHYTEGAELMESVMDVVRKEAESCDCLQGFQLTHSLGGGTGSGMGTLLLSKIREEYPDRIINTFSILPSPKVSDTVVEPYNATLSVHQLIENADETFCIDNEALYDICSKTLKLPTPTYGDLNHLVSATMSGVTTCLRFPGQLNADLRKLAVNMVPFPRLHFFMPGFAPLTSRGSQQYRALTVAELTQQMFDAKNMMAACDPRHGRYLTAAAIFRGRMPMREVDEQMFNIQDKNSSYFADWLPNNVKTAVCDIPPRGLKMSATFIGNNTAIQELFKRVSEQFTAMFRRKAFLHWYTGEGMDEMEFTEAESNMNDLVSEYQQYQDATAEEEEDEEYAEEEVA
# Key:
# Test in all cases: PRISMA enrichment of interactor (LFQ) in peptide spot vs all other peptide spots (log2 fold change); higher = stronger / more specific binding of the interactor to the peptide
# COX6B1, P14854 = target: COX6B1, P14854
# Method: (§1)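 PRISMA: 15-aa overlapping tiles (offset 8 aa) of 60 microproteins, plus SOS1/GLUT1 control peptides, were spot-synthesized on cellulose membranes in triplicate. Membranes were incubated with benzonase-treated HEK293T lysate, and bound proteins were identified by LC-MS/MS with LFQ. Enrichment is the log2 fold change of each protein in one spot versus all other spots. Only interactors passing the significance cutoff are listed.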
# DCAF13, Q9NV06 = target: DCAF13, Q9NV06
# Method: as §1
# NDUFS8, O00217 = target: NDUFS8, O00217
# Method: as §1
# NNT, Q13423 = target: NNT, Q13423
# Method: as §1
# RBM3, P98179 = target: RBM3, P98179
# Method: as §1
# UFL1, O94874 = target: UFL1, O94874
# Method: as §1
# ZC3H15, Q8WU90 = target: ZC3H15, Q8WU90
# Method: as §1
# [1] = substrate: CP, P00450
# Method: as §1
# FAM83D, Q9H4H8 = target: FAM83D, Q9H4H8
# Method: as §1
# HERC5, Q9UII4 = target: HERC5, Q9UII4
# Method: as §1
# HMGN4, O00479 = target: HMGN4, O00479
# Method: as §1
# IGF2BP3, O00425 = target: IGF2BP3, O00425
# Method: as §1
# MUC19, Q7Z5P9 = target: MUC19, Q7Z5P9
# Method: as §1
# [2] = substrate: PCNP, Q8WW12
# Method: as §1
# SNRNP27, Q8WVK2 = target: SNRNP27, Q8WVK2
# Method: as §1
# CSNK2A2, P19784 = target: CSNK2A2, P19784
# Method: as §1
# DDX42, Q86XP3 = target: DDX42, Q86XP3
# Method: as §1
# GRPEL1, Q9HAV7 = target: GRPEL1, Q9HAV7
# Method: as §1
# MRPS28, Q9Y2Q9 = target: MRPS28, Q9Y2Q9
# Method: as §1
# TMEM201, Q5SNT2 = target: TMEM201, Q5SNT2
# Method: as §1
# DBR1, Q9UK59 = target: DBR1, Q9UK59
# Method: as §1
# DDX49, Q9Y6V7 = target: DDX49, Q9Y6V7
# Method: as §1
# ETFB, P38117 = target: ETFB, P38117
# Method: as §1
# NAA35, Q5VZE5 = target: NAA35, Q5VZE5
# Method: as §1
# NXT1, Q9UKK6 = target: NXT1, Q9UKK6
# Method: as §1
# PRKCSH, P14314 = target: PRKCSH, P14314
# Method: as §1
# RBM34, P42696 = target: RBM34, P42696
# Method: as §1
# SEMG1, P04279 = target: SEMG1, P04279
# Method: as §1
# COPS5, Q92905 = target: COPS5, Q92905
# Method: as §1
# EDC3, Q96F86 = target: EDC3, Q96F86
# Method: as §1
# FIS1, Q9Y3D6 = target: FIS1, Q9Y3D6
# Method: as §1
# GBF1, Q92538 = target: GBF1, Q92538
# Method: as §1
# KTN1, Q86UP2 = target: KTN1, Q86UP2
# Method: as §1
# MYO15A, Q9UKN7 = target: MYO15A, Q9UKN7
# Method: as §1
# ORC1, Q13415 = target: ORC1, Q13415
# Method: as §1
# ORC3, Q9UBD5 = target: ORC3, Q9UBD5
# Method: as §1
# SCYL2, Q6P3W7 = target: SCYL2, Q6P3W7
# Method: as §1
# STIP1, P31948 = target: STIP1, P31948
# Method: as §1
# TTF2, Q9UNY4 = target: TTF2, Q9UNY4
# Method: as §1
# ZBTB11, O95625 = target: ZBTB11, O95625
# Method: as §1
# ZNF24, P17028 = target: ZNF24, P17028
# Method: as §1
# CSNK2A1, P68400 = target: CSNK2A1, P68400
# Method: as §1
# ECHS1, P30084 = target: ECHS1, P30084
# Method: as §1
# KARS, Q15046 = target: KARS, Q15046
# Method: as §1
# PABPC4, Q13310 = target: PABPC4, Q13310
# Method: as §1
# PPP1R2, P41236 = target: PPP1R2, P41236
# Method: as §1
# PRDX4, Q13162 = target: PRDX4, Q13162
# Method: as §1
# PSMC3, P17980 = target: PSMC3, P17980
# Method: as §1
# PWWP2A, Q96N64 = target: PWWP2A, Q96N64
# Method: as §1
# SF1, Q15637 = target: SF1, Q15637
# Method: as §1
# SLC7A6OS, Q96CW6 = target: SLC7A6OS, Q96CW6
# Method: as §1
# CTCF, P49711 = target: CTCF, P49711
# Method: as §1
# FBXW11, Q9UKB1 = target: FBXW11, Q9UKB1
# Method: as §1
# MLF2, Q15773 = target: MLF2, Q15773
# Method: as §1
# NOP58, Q9Y2X3 = target: NOP58, Q9Y2X3
# Method: as §1
# NUP153, P49790 = target: NUP153, P49790
# Method: as §1
# ODF2, Q5BJF6 = target: ODF2, Q5BJF6
# Method: as §1
# PDIA3, P30101 = target: PDIA3, P30101
# Method: as §1
# PSMC2, P35998 = target: PSMC2, P35998
# Method: as §1
# SF3B5, Q9BWJ5 = target: SF3B5, Q9BWJ5
# Method: as §1
# ZNF616, Q08AN1 = target: ZNF616, Q08AN1
# Method: as §1
# CTNNB1, P35222 = target: CTNNB1, P35222
# Method: as §1
# EIF3B, P55884 = target: EIF3B, P55884
# Method: as §1
# IRAK1, P51617 = target: IRAK1, P51617
# Method: as §1
# MAP2K3, P46734 = target: MAP2K3, P46734
# Method: as §1
# NDUFA10, O95299 = target: NDUFA10, O95299
# Method: as §1
# SEC16A, O15027 = target: SEC16A, O15027
# Method: as §1
# SLC30A9, Q6PML9 = target: SLC30A9, Q6PML9
# Method: as §1
# SRSF1, Q07955 = target: SRSF1, Q07955
# Method: as §1
# SRSF10, O75494 = target: SRSF10, O75494
# Method: as §1
# TUBB8, Q3ZCM7 = target: TUBB8, Q3ZCM7
# Method: as §1
binder,measurement,setting,value
MFCCAQCEEAKEKKD [PRR34-AS1],PRISMA enrichment of interactor (log2),"COX6B1, P14854",6
same,PRISMA enrichment of interactor (log2),"DCAF13, Q9NV06",3.91
same,PRISMA enrichment of interactor (log2),"NDUFS8, O00217",3.8
same,PRISMA enrichment of interactor (log2),"NNT, Q13423",4.78
same,PRISMA enrichment of interactor (log2),"RBM3, P98179",5.4
same,PRISMA enrichment of interactor (log2),"UFL1, O94874",6.18
same,PRISMA enrichment of interactor (log2),"ZC3H15, Q8WU90",7.49
MAHEHGHEHGHHKME [NDUFB3],PRISMA enrichment of interactor (log2),[1],5.43
same,PRISMA enrichment of interactor (log2),"FAM83D, Q9H4H8",4.87
same,PRISMA enrichment of interactor (log2),"HERC5, Q9UII4",4.44
same,PRISMA enrichment of interactor (log2),"HMGN4, O00479",5.45
same,PRISMA enrichment of interactor (log2),"IGF2BP3, O00425",5.64
same,PRISMA enrichment of interactor (log2),"MUC19, Q7Z5P9",8.63
same,PRISMA enrichment of interactor (log2),[2],4.24
same,PRISMA enrichment of interactor (log2),"SNRNP27, Q8WVK2",4.29
LHVEHYTLLFFRILF [HAND2-AS1],PRISMA enrichment of interactor (log2),"CSNK2A2, P19784",4.39
same,PRISMA enrichment of interactor (log2),"DDX42, Q86XP3",6.29
same,PRISMA enrichment of interactor (log2),"GRPEL1, Q9HAV7",4.6
same,PRISMA enrichment of interactor (log2),"MRPS28, Q9Y2Q9",6.71
same,PRISMA enrichment of interactor (log2),"TMEM201, Q5SNT2",6.6
DRGSGMTGKGGNGFC [LINC00881_2],PRISMA enrichment of interactor (log2),"COX6B1, P14854",5.87
same,PRISMA enrichment of interactor (log2),"DBR1, Q9UK59",5.44
same,PRISMA enrichment of interactor (log2),"DDX49, Q9Y6V7",5.47
same,PRISMA enrichment of interactor (log2),"ETFB, P38117",5.97
same,PRISMA enrichment of interactor (log2),"NAA35, Q5VZE5",4.56
same,PRISMA enrichment of interactor (log2),"NXT1, Q9UKK6",5.88
same,PRISMA enrichment of interactor (log2),"PRKCSH, P14314",4.49
same,PRISMA enrichment of interactor (log2),"RBM34, P42696",6
same,PRISMA enrichment of interactor (log2),"SEMG1, P04279",4.38
RKVVKAHASLHGARL [IDI2-AS1],PRISMA enrichment of interactor (log2),"COPS5, Q92905",4.29
same,PRISMA enrichment of interactor (log2),"EDC3, Q96F86",4.25
same,PRISMA enrichment of interactor (log2),"FIS1, Q9Y3D6",3.96
same,PRISMA enrichment of interactor (log2),"GBF1, Q92538",4.79
same,PRISMA enrichment of interactor (log2),"KTN1, Q86UP2",4.68
same,PRISMA enrichment of interactor (log2),"MYO15A, Q9UKN7",5.31
same,PRISMA enrichment of interactor (log2),"ORC1, Q13415",5.81
same,PRISMA enrichment of interactor (log2),"ORC3, Q9UBD5",3.9
same,PRISMA enrichment of interactor (log2),"SCYL2, Q6P3W7",6.45
same,PRISMA enrichment of interactor (log2),"STIP1, P31948",5.72
same,PRISMA enrichment of interactor (log2),"TTF2, Q9UNY4",5.79
same,PRISMA enrichment of interactor (log2),"ZBTB11, O95625",5.18
same,PRISMA enrichment of interactor (log2),"ZNF24, P17028",4.57
TRASMEPPLVAGGLS [JHDM1D-AS1],PRISMA enrichment of interactor (log2),"CSNK2A1, P68400",5.5
same,PRISMA enrichment of interactor (log2),"ECHS1, P30084",4.93
same,PRISMA enrichment of interactor (log2),"KARS, Q15046",5.88
same,PRISMA enrichment of interactor (log2),"PABPC4, Q13310",6.34
same,PRISMA enrichment of interactor (log2),"PPP1R2, P41236",5.37
same,PRISMA enrichment of interactor (log2),"PRDX4, Q13162",5.94
same,PRISMA enrichment of interactor (log2),"PSMC3, P17980",5.1
same,PRISMA enrichment of interactor (log2),"PWWP2A, Q96N64",3.9
same,PRISMA enrichment of interactor (log2),"SF1, Q15637",5.85
same,PRISMA enrichment of interactor (log2),"SLC7A6OS, Q96CW6",4.66
QGPPPMSPSMTPSQT [PALLD],PRISMA enrichment of interactor (log2),"CTCF, P49711",4.42
same,PRISMA enrichment of interactor (log2),"FBXW11, Q9UKB1",5.74
same,PRISMA enrichment of interactor (log2),"MLF2, Q15773",4.24
same,PRISMA enrichment of interactor (log2),"MUC19, Q7Z5P9",8.32
same,PRISMA enrichment of interactor (log2),"NOP58, Q9Y2X3",4.52
same,PRISMA enrichment of interactor (log2),"NUP153, P49790",5.71
same,PRISMA enrichment of interactor (log2),"ODF2, Q5BJF6",10
same,PRISMA enrichment of interactor (log2),"PDIA3, P30101",10.7
same,PRISMA enrichment of interactor (log2),"PSMC2, P35998",5.71
same,PRISMA enrichment of interactor (log2),"SF3B5, Q9BWJ5",5.44
same,PRISMA enrichment of interactor (log2),"ZNF616, Q08AN1",4.69
PQGNHKVLYKERYSS [TRDN-AS1_2],PRISMA enrichment of interactor (log2),"CTNNB1, P35222",4.92
same,PRISMA enrichment of interactor (log2),"EIF3B, P55884",4.68
same,PRISMA enrichment of interactor (log2),"IRAK1, P51617",4.09
same,PRISMA enrichment of interactor (log2),"MAP2K3, P46734",3.67
same,PRISMA enrichment of interactor (log2),"NDUFA10, O95299",4.01
same,PRISMA enrichment of interactor (log2),"SEC16A, O15027",3.98
same,PRISMA enrichment of interactor (log2),"SLC30A9, Q6PML9",5.32
same,PRISMA enrichment of interactor (log2),"SRSF1, Q07955",4.2
same,PRISMA enrichment of interactor (log2),"SRSF10, O75494",4.43
same,PRISMA enrichment of interactor (log2),"TUBB8, Q3ZCM7",4.2

# Four records drawn at random from the list so far:
binder,measurement,setting,value
RKVVKAHASLHGARL [IDI2-AS1],PRISMA enrichment of interactor (log2),"MYO15A, Q9UKN7",5.31
PQGNHKVLYKERYSS [TRDN-AS1_2],PRISMA enrichment of interactor (log2),"EIF3B, P55884",4.68
TRASMEPPLVAGGLS [JHDM1D-AS1],PRISMA enrichment of interactor (log2),"PABPC4, Q13310",6.34
DRGSGMTGKGGNGFC [LINC00881_2],PRISMA enrichment of interactor (log2),"COX6B1, P14854",5.87

# From the supplement of paper PMC10032668
